To fix the notation:
B1: 02-140 peptide phage clone (ErbB2-binding peptide 16) (peptide)
peptide: WTGWCLNPEESTWGFCSGYI
notes: From an EC-1 biased peptide phage library; also called EBP-16
B2: 02-124 peptide phage clone (ErbB2-binding peptide 14) (peptide)
peptide: WTGWCLNPEESTWGFCRSAG
notes: From an EC-1 biased peptide phage library; also called EBP-14
B3: 02-137 peptide phage clone (ErbB2-binding peptide 15) (peptide)
peptide: WTGWCLSPEESTWGFCRSAG
notes: From an EC-1 biased peptide phage library; also called EBP-15
B4: 02-135 peptide phage clone (ErbB2-binding peptide 17) (peptide)
peptide: WTGWCFDDNHSTWGFCTGSF
notes: From an EC-1 biased peptide phage library; also called EBP-17

Results are given in words; binding and its absence hold for the method and conditions named. Some binding calls cover weakened binding; strength is not graded here.

For the test, the target named is ErbB2 (human) (UniProt P04626). As to the kind of experiment: peptide phage ELISA and immunofluorescence. A general note: An ELISA detects its analyte on a solid surface through an enzyme-linked reagent.
For CEVWGFVPWAC [ErbB2-binding peptide 12], the binding entry was “binds”.
As for CEVWGEVPWTC [ErbB2-binding peptide 11], the entry is “binds”; as for DTDMCWWWSREFGWECAGAG [CB022701-20 (E-20) (ErbB2-binding peptide 18)], “binds”; as for IQEVCWFDYNLSQWHCMTVI [ErbB2-binding peptide 7], “binds”.
In the case of B1, the binding result is listed as “binds”.
On to WTGWCLNPEESTWGFCTGSF [ErbB2-binding peptide 5], for which the binding entry is reported as “binds”.
In the case of WTGWCLNPEESTWGFCTGSF [EC-1 phage clone (ErbB2-binding peptide 1 displayed on phage)], the binding result is “binds”.
The entry for B2 is “binds”; for B3 it is “binds”; for PDIYCLSVTAPGFLICYERY [ErbB2-binding peptide 8] it is “binds”.
As for ARLQCWSLGWGGPVYCGFGQ [ErbB2-binding peptide 6], the entry is “binds”.
Take GRGWCWSEWQNDWFWCWDVW [ErbB2-binding peptide 4]: the binding entry is on record as “binds”.
For the molecule SLALCLSEGVLLGADCRVLF [CB051701-19 (C-19) (ErbB2-binding peptide 19)], the binding result is “binds”.
Turning to LNWECWYDYRLEAWDCRGDI [ErbB2-binding peptide 10], the binding result is reported as “binds”.
As for HDELCVFSFDFNALLCWPAE [ErbB2-binding peptide 9], the entry is “binds”; as for GFWTCEYDWWSDATVCMHTL [ErbB2-binding peptide 3], “binds”; as for VVACSWDWTMGAVVCYERI [ErbB2-binding peptide 2], “binds”.
The entry for WSSMCGDPTIADWLWCFSDA [CB051701-25 (C-25) (ErbB2-binding peptide 20)] is “binds”; for SNESCGSPINPWGEMCLLML [ErbB2-binding peptide 13] it is “binds”.
The entry for B4 is “binds”.

The record behind these values is patent US20030216309A1 (UNIVERSITY OF VERMONT AND STATE AGRICULTURAL COLLEGE, published 2003).
